{"source": "paper PMC9072715", "about": "(RSC Advances, 2019)", "key": {"HeLa cells": {"system": "HeLa cells", "experiment": "CCK-8 anti-proliferative assay, HeLa", "format": "cell-based", "details": "Homo sapiens, 48 h, read-out: IC50 HeLa, HeLa, CCK-8, 48 h", "summary_of_the_method": "(§1)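 Log-phase cells in DMEM were plated at 1 × 10^4 per well and allowed 12 h at 37 °C and 5% CO2. Test compounds (0–80 μM) were added for 48 h. Medium was replaced with medium containing 10% CCK-8 for 4 h, and A450 was read. Percent inhibition was calculated against the untreated control and doxorubicin (positive control), and IC50 was obtained by curve fitting.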"}, "MCF-7 cells": {"system": "MCF-7 cells", "experiment": "CCK-8 anti-proliferative assay, MCF-7", "format": "cell-based", "details": "Homo sapiens, MCF7, 48 h, read-out: IC50 MCF-7, MCF-7, CCK-8, 48 h", "summary_of_the_method": "as §1"}}, "note": "Counter-ions that a name gives are not always drawn.", "data": [{"smiles": "COc1cccc2c1C(=O)c1c(O)c3c(c(O)c1C2=O)C[C@@](O)(C(=O)CO)C[C@@H]3O[C@H]1C[C@H](N)[C@H](O)[C@H](C)O1", "note": "[Doxorubicin hydrochloride, doxorubicin hydrochloride, reference compound]", "values": [{"measurement": "IC50", "setting": "HeLa cells", "value": 3500, "unit": "nM"}, {"measurement": "IC50", "setting": "MCF-7 cells", "value": 1100, "unit": "nM"}]}]}
